The text below walks through data of PMC12795676, “Integrin α5β1 mediates the inhibitory effects of vasoinhibin on angiogenesis and vascular permeability [drawing 1]” (The Journal of Biological Chemistry, 2025).

Protein sequences, listed by entry. Tags and fused reporters are not part of them. Lines headed by an entry give the natural chain unless they say otherwise; changes in a name come on top. Residues count along the entry.
UniProt P08648: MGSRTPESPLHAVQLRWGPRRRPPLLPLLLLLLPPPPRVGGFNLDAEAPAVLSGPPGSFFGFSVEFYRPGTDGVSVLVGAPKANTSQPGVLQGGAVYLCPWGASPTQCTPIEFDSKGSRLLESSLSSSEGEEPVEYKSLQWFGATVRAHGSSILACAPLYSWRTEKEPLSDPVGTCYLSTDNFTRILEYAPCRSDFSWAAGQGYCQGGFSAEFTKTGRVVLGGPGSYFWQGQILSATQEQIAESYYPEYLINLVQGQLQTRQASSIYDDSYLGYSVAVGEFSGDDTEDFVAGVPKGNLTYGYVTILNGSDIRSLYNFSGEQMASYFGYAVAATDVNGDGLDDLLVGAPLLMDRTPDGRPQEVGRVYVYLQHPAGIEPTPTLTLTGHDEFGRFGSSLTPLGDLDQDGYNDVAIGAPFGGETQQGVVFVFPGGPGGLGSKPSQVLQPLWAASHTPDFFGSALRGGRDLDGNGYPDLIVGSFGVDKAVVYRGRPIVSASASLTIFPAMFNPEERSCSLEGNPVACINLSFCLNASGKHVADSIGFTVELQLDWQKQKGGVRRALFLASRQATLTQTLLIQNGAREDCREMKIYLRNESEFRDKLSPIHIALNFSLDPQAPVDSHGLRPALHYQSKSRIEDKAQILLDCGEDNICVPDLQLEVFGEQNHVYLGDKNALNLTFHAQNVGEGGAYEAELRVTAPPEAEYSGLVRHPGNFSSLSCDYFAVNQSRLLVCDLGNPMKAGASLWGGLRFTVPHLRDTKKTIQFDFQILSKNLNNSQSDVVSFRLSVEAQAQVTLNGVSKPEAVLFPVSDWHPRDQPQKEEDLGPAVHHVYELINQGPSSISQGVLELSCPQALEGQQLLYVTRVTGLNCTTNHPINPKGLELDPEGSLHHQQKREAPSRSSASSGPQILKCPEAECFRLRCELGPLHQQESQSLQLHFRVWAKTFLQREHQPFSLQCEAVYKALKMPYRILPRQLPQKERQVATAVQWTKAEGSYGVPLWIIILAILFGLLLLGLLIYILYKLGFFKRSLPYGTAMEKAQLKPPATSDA
UniProt Q03405, residues 23-305: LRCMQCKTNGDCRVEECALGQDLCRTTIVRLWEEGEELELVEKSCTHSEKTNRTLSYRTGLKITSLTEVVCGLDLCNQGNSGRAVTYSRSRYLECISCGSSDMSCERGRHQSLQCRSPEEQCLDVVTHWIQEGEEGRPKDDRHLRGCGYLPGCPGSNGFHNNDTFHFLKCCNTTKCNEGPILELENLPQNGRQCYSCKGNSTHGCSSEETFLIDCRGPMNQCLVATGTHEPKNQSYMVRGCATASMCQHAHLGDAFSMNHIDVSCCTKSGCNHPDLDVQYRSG

The target in the assay is T1, biotinylated peptide comprising residues 45 to 51 of vasoinhibin (B-Vi45-51) (UniProt P01236).
T1 sequence (peptide, biotin (position not stated)): THGRGFI
The assay can be described thus: pull-down; HUVECs treated with 500 nM B-Vi45-51, 20 ng/mL bFGF and 25 ng/mL VEGF for 1 h, lysed in RIPA, sonicated, 30 min at 37 °C, pulled down with Dynabeads Streptavidin T1; Western blot for integrin α5, PAI-1 and uPAR; only the target purified. On the technique in general: A western blot detects proteins with antibodies after separation by electrophoresis.

No constants are given. Whether binding was seen depends on the method and setting. In cells and extracts the contact can be indirect. Some binding calls cover weakened binding; strength is not graded here.

In the case of “integrin α5β1, endogenous in HUVECs (detected by blot of integrin α5, ∼145 kDa) (from UniProt P08648 42-1049; P05556 21-798) (receptor)”, the binding result is listed as “binds”. As to “urokinase-type plasminogen activator receptor (uPAR), endogenous in HUVECs (from UniProt Q03405 23-305)”, the binding result is “no binding (tested: 500 nM B-Vi45-51)”.
